Results: the M2OR odorant receptor database
The entries are a selection whose mix differs from that of the whole data set. Calls are pooled over several reports, among them a noisy single-well screen. The list shows a part of the results.

Amino acid sequences for entries named in this document (tags omitted). A change or cut given only in a name is not applied to a line headed by its entry.
UniProt Q9H342: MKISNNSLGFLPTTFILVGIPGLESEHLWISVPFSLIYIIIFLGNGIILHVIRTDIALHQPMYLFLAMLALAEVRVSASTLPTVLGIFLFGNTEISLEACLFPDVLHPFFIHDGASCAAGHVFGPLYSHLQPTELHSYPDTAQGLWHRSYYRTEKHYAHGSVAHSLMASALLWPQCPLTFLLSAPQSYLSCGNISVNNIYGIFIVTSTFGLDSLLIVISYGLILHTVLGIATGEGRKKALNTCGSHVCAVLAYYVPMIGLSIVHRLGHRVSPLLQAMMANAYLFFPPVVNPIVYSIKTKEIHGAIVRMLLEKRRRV
UniProt Q9H2C8: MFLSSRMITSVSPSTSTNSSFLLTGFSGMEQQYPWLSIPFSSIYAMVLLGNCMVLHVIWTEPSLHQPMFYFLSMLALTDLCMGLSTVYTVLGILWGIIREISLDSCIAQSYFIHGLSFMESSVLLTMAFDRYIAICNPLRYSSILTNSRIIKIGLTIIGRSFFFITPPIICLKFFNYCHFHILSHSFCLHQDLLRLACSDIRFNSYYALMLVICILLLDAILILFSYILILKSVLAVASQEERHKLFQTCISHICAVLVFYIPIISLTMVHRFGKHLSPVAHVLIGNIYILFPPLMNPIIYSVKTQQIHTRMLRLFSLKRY
UniProt Q8NGJ4: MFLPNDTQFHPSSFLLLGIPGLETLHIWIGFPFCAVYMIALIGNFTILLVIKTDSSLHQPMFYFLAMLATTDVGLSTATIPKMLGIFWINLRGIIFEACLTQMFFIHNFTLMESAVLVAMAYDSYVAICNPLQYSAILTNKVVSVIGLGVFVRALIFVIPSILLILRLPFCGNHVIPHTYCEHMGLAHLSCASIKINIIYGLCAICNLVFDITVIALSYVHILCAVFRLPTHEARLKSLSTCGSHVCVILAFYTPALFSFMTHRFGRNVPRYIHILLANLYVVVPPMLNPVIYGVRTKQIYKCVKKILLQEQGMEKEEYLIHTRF
UniProt Q8NGH9: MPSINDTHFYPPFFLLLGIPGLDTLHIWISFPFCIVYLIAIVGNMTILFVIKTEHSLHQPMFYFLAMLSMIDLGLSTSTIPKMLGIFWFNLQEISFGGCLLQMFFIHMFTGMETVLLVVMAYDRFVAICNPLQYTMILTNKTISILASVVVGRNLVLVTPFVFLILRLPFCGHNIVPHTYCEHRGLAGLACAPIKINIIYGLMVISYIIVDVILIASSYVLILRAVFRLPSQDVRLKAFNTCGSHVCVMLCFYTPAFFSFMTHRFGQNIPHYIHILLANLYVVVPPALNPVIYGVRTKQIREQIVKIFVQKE
UniProt Q8NH55: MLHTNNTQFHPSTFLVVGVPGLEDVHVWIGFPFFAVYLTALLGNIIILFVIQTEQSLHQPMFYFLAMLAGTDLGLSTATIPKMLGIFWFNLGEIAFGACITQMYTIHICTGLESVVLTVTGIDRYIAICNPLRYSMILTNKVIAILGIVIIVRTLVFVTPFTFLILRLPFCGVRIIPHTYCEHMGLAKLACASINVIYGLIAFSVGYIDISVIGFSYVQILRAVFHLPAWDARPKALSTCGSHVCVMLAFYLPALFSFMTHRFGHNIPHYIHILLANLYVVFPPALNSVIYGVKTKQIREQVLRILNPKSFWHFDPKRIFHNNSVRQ

Tests used:
Conditions in all cases: stereoisomer not certain
OR51I1 (Homo sapiens) = target: T1, OR51I1 (Homo sapiens) (UniProt Q9H343)
T1 sequence (whole entry): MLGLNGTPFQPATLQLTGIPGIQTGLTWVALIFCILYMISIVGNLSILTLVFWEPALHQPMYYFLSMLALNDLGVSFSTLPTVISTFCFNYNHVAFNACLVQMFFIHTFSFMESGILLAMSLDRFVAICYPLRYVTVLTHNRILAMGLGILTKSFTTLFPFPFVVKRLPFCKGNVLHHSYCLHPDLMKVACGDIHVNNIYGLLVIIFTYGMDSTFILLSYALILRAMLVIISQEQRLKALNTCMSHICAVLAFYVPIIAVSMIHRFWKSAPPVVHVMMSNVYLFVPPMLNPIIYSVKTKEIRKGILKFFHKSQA
Method in brief: (§1)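 Transient luciferase assays in mammalian cell lines were common, though methods varied by source. The values come from published papers and their supplementary material, with extra details from the original authors when needed. Responsive refers to a measured signal the original authors judged statistically different from baseline, and non-responsive (inactive) to the remainder.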

OR51I2 (Homo sapiens) = target: T2, OR51I2 (Homo sapiens) (UniProt Q9H344)
T2 sequence (whole entry): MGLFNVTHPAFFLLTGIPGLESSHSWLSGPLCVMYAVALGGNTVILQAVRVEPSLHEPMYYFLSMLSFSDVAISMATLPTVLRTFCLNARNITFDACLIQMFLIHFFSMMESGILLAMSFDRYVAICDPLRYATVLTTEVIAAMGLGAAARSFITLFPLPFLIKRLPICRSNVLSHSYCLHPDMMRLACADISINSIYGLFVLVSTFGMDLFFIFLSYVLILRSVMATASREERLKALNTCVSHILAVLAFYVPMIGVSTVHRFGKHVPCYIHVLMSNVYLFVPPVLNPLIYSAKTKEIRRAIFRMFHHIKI
Method in brief: as §1

OR51J1 (Homo sapiens) = OR51J1 (Homo sapiens) (UniProt Q9H342)
Method in brief: as §1

OR51L1 (Homo sapiens) = target: T3, OR51L1 (Homo sapiens) (UniProt Q8NGJ5)
T3 sequence (whole entry): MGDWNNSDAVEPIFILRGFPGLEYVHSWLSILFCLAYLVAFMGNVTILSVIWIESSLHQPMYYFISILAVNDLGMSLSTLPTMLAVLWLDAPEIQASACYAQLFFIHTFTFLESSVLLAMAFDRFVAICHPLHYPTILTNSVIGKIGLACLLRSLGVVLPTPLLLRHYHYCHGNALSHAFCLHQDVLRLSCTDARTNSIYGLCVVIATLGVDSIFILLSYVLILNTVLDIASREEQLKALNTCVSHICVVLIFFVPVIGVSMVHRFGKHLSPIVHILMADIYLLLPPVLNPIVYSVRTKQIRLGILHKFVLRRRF
Method in brief: as §1

OR51M1 (Homo sapiens) = target: T4, OR51M1 (Homo sapiens) (UniProt Q9H341)
T4 sequence (whole entry): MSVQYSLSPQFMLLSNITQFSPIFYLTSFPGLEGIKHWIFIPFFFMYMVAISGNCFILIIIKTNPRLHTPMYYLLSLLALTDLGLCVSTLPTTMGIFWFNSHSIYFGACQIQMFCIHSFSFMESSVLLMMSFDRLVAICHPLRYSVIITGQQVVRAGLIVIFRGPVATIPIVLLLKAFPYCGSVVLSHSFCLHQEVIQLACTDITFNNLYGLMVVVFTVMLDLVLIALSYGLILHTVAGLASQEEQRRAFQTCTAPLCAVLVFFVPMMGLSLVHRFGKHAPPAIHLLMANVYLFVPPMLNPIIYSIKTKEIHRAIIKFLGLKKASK
Method in brief: as §1

OR51Q1 (Homo sapiens) = target: T5, OR51Q1 (Homo sapiens) (UniProt Q8NH59)
T5 sequence (whole entry): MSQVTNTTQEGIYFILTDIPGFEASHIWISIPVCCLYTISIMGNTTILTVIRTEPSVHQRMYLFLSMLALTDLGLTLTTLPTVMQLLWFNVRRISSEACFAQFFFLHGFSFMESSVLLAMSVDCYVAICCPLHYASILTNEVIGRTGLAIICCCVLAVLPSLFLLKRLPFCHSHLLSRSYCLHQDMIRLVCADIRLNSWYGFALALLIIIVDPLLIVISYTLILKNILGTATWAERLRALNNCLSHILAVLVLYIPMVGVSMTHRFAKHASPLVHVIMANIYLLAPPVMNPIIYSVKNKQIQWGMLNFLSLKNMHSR
Method in brief: as §1

OR51T1 (Homo sapiens) = target: T6, OR51T1 (Homo sapiens) (UniProt Q8NGJ9)
T6 sequence (whole entry): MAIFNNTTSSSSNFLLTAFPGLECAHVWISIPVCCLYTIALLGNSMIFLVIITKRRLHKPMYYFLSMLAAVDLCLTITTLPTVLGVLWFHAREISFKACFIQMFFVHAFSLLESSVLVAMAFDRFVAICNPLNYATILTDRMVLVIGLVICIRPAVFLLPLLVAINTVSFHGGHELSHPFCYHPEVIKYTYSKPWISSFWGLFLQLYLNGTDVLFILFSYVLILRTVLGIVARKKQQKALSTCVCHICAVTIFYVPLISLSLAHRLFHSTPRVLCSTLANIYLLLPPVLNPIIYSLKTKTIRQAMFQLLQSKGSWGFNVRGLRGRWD
Method in brief: as §1

OR51V1 (Homo sapiens) = OR51V1 (Homo sapiens) (UniProt Q9H2C8)
Method in brief: as §1

OR52A1 (Homo sapiens) = target: T7, OR52A1 (Homo sapiens) (UniProt Q9UKL2)
T7 sequence (whole entry): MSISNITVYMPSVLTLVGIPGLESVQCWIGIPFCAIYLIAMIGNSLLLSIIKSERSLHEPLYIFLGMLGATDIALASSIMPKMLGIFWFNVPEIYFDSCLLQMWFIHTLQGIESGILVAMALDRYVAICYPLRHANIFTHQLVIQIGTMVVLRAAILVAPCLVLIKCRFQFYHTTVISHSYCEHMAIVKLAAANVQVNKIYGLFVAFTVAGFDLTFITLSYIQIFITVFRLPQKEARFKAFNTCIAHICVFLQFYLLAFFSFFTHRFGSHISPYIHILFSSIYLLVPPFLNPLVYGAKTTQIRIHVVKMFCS
Method in brief: as §1

OR52A4P (Homo sapiens) = target: T8, OR52A4P (Homo sapiens) (UniProt A6NMU1)
T8 sequence (whole entry): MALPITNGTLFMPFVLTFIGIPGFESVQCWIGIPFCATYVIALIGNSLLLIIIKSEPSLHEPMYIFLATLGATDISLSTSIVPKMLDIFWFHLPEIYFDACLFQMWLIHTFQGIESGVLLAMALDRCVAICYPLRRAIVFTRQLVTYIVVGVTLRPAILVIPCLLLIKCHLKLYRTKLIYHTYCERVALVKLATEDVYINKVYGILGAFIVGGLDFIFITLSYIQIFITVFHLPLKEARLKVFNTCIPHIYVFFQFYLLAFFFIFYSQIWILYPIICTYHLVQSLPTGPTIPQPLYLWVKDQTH
Method in brief: as §1

OR52A5 (Homo sapiens) = target: T9, OR52A5 (Homo sapiens) (UniProt Q9H2C5)
T9 sequence (whole entry): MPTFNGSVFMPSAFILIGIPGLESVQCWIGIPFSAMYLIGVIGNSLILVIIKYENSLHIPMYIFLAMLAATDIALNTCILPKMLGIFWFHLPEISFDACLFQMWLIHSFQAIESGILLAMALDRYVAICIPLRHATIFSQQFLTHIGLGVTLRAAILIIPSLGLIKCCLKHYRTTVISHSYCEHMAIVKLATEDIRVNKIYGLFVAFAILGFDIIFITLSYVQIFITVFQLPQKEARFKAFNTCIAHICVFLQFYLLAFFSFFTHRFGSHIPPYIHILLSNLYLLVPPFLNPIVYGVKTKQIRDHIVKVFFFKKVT
Method in brief: as §1

OR52B2 (Homo sapiens) = target: T10, OR52B2 (Homo sapiens) (UniProt Q96RD2)
T10 sequence (whole entry): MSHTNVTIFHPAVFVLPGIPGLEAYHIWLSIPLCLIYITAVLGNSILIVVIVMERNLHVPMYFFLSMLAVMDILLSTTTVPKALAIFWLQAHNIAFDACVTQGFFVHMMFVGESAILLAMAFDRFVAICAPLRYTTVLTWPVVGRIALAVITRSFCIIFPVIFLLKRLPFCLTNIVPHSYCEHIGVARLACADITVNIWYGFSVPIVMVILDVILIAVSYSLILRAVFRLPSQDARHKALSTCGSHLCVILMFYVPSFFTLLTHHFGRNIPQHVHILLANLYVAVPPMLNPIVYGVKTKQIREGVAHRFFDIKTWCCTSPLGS
Method in brief: as §1

OR52B4 (Homo sapiens) = target: T11, OR52B4 (Homo sapiens) (UniProt Q8NGK2)
T11 sequence (whole entry): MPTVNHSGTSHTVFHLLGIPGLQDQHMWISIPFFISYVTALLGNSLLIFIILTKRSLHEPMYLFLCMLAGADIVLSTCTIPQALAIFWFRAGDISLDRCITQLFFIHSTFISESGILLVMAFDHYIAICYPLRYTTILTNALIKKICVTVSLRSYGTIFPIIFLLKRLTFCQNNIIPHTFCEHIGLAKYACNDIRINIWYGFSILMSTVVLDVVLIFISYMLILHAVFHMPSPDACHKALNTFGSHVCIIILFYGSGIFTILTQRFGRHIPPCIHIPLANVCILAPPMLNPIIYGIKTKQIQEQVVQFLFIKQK
Method in brief: as §1

OR52B6 (Homo sapiens) = target: T12, OR52B6 (Homo sapiens) (UniProt Q8NGF0)
T12 sequence (whole entry): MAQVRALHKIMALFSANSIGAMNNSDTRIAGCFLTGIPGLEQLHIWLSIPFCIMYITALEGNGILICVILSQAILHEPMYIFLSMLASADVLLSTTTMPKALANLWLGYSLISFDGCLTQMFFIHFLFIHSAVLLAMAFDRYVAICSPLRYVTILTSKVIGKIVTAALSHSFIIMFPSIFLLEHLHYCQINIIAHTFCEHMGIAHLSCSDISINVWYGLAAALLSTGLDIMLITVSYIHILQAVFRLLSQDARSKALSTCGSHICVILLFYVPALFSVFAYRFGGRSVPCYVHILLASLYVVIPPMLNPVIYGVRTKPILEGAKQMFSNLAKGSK
Method in brief: as §1

OR52E2 (Homo sapiens) = OR52E2 (Homo sapiens) (UniProt Q8NGJ4)
Method in brief: as §1

OR52E4 (Homo sapiens) = OR52E4 (Homo sapiens) (UniProt Q8NGH9)
Method in brief: as §1

OR52E5 (Homo sapiens) = OR52E5 (Homo sapiens) (UniProt Q8NH55)
Method in brief: as §1

OR51S1 (Homo sapiens) = target: T13, OR51S1 (Homo sapiens) (UniProt Q8NGJ8)
T13 sequence (whole entry): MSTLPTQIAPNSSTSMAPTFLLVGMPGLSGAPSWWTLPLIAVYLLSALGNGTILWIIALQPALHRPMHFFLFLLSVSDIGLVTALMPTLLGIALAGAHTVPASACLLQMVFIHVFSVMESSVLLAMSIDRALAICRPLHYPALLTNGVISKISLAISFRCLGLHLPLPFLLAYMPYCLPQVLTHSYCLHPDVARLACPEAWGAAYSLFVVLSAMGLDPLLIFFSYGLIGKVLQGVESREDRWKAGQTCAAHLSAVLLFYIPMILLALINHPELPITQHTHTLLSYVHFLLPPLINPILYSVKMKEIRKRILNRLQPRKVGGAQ
Method in brief: as §1

OR52D1 (Homo sapiens) = target: T14, OR52D1 (Homo sapiens) (UniProt Q9H346)
T14 sequence (whole entry): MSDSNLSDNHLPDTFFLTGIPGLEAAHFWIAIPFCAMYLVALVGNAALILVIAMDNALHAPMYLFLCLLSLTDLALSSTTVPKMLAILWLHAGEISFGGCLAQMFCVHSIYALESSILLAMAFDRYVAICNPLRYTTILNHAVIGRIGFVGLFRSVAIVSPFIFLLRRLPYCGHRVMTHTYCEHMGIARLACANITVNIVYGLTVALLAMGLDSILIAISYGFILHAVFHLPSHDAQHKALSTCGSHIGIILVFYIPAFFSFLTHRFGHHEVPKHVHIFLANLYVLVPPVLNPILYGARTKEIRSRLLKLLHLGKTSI
Method in brief: as §1

Measured: odorant receptor agonist call

CCCC(=O)O
not listed: OR51S1 (Homo sapiens) | OR52D1 (Homo sapiens)
inactive: all other assays above

COc1cc(C)ccc1O
inactive: OR51I1 (Homo sapiens) | OR51I2 (Homo sapiens) | OR51L1 (Homo sapiens) | OR51S1 (Homo sapiens) | OR52A4P (Homo sapiens) | OR52A5 (Homo sapiens) | OR52B4 (Homo sapiens) | OR52D1 (Homo sapiens)

CCCCCCCCOC(C)=O
inactive: OR51I1 (Homo sapiens) | OR51I2 (Homo sapiens) | OR51L1 (Homo sapiens) | OR51S1 (Homo sapiens) | OR52A4P (Homo sapiens) | OR52A5 (Homo sapiens) | OR52B4 (Homo sapiens) | OR52D1 (Homo sapiens)

CC(=O)OC(C)(C)C1CC=C(C)CC1 (stereo unspecified)
active: OR51I1 (Homo sapiens)
inactive: OR51I2 (Homo sapiens) | OR51L1 (Homo sapiens) | OR51S1 (Homo sapiens) | OR52A4P (Homo sapiens) | OR52A5 (Homo sapiens) | OR52B4 (Homo sapiens) | OR52D1 (Homo sapiens)

CC(C)=CCCC(C)=CC=O
inactive: OR51I2 (Homo sapiens) | OR51L1 (Homo sapiens) | OR51S1 (Homo sapiens) | OR52A1 (Homo sapiens) | OR52A4P (Homo sapiens) | OR52B4 (Homo sapiens)
active: OR51I1 (Homo sapiens) | OR52A5 (Homo sapiens) | OR52B2 (Homo sapiens) | OR52D1 (Homo sapiens)
